## Primary screen of a compound library

Data taken from ChEMBL document CHEMBL3988442, “University of Dundee, Small-Polar-MMV Screening Library” (2021).

Values are the deposited “Percent Effect”, in %. The record does not define 0% and 100%; most values in the screen are far below 50% and negative numbers occur (in some assays of this library far below -100). The compounds are a random part of those screened. Two or more numbers in one place are separate tests of the same structure; such repeats can differ widely.

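Viability assay of Plasmodium falciparum sporozoites; the read-out is not stated. The concentration is filed as 10 mM, unlikely as a test dose, so the dose is not known. The record gives no direction; compounds that gave an IC50 in retests scored well above the rest, so higher reads as lower viability. Strong results were mostly tested again. About 34,000 compounds were tested under these conditions; 0.84% (about 280) showed 50% or more at least once.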

compound	Percent Effect
[H][C@@]12COC[C@]1(CNS(C)(=O)=O)CN(C(=O)C1CCSCC1)C2	-4.457
CC(C)Nc1ncnc2c1CCN(C(=O)N1CCOCC1)CC2	-3.924
CC(C)n1ccnc1CN1CCCN(C(=O)c2nccnc2N)CC1	-1.771
COCC(=O)N1CCCC(C(=O)c2cnn(-c3ccc(F)cc3)c2N)C1 (stereo not given)	48.61 and 20.63 and 15.78
Nc1nc2nc(C3CCCN(C(=O)c4cscn4)C3)ccc2s1 (stereo not given)	-8.716
Cc1nc(CN(C)C2CCN(CCCOc3ccccc3C)C2)no1 (stereo not given)	15.94
CCN(C)C1COC2(CCN(C(=O)c3cccc(Cl)c3)CC2)C1.O=C(O)C(F)(F)F (stereo not given)	-0.5133
COc1ccc(NC(=O)N2CCCCC2c2ncc[nH]2)cc1 (stereo not given)	-29.92 and -27.11 and -0.7769
Cc1noc(CCNC(=O)NCc2ccc(N3CCCCC3)cc2)n1	3.333
CC(NC(=O)N(C)CCCOc1ccccc1)c1nncn1C (stereo not given)	11.7
O=C(O)C(F)(F)F.O=C1CCCN1Cc1nnc2n1CCN(Cc1ccoc1)CC2	10.54
C[C@H](O)CNC(=O)c1cnc(-c2ccccc2)nc1O	-3.412
O=C(NCCCN1CCOCC1)c1cc(-c2ccco2)[nH]n1	-11.32
CN(C)S(=O)(=O)c1ccc(=O)n(CC2CCCO2)c1 (stereo not given)	0.6055
CC(C)CCN1CCC2(CC1)CN(C(=O)c1cnccn1)CCO2.O=C(O)C(F)(F)F	-9.199 and -16.18 and -20.67
CN(C)C(=O)N1CCC2(CC1)CN(Cc1ccccn1)C(=O)CO2.O=C(O)C(F)(F)F	-12.75
Cc1ncc2c(n1)CCN(CCCc1nc3ccccc3o1)C2	-0.4779
CCc1nc(CN(C(C)=O)C2CCN(CC3CCOCC3)C2)no1 (stereo not given)	11.01
Cc1cc(C)n(Cc2cccc(C(=O)N3CCOCC3(C)C)c2)n1	0.5263
CN1CC(C(=O)NCCc2ccc(F)c(Br)c2)CC1=O (stereo not given)	-15.76
Cc1cc(C)c2c(c1)C(NC(=O)CSCc1ccncc1)CCO2 (stereo not given)	-25.7
N#CC1=C(N)Nn2c(nnc2-c2ccccc2F)S1	-9.718
[H][C@]12CC[C@]([H])(CN(S(C)(=O)=O)C1)N(C(=O)Cn1nc3ccccc3n1)C2	3.344
[H][C@@]12CCN(S(=O)(=O)c3cccc(C)c3)C[C@]1(C(=O)NC)CCO2	-13.49
COc1c(C(=O)NCc2cccnc2)nnn1Cc1ccc(C)cc1	4.605
CCN(CC1CCCO1)C(=O)NCCNC(=O)c1ccccc1F (stereo not given)	9.669
CN1CCC(Cc2cncc(-c3ccccc3C(=O)O)n2)C1 (stereo not given)	7.861
O=C(O)C(F)(F)F.O=C(c1cccs1)N1CC[C@@H](N2CCOCC2)[C@@H]1Cc1ccccc1	-21.9
CN(Cc1cccs1)C(=O)CN1CCCC(Cn2cncn2)C1 (stereo not given)	9.103
COCC1CC2(CCN(Cc3ccncc3)CC2)CN1C(C)C.O=C(O)C(F)(F)F.O=C(O)C(F)(F)F.O=C(O)C(F)(F)F (stereo not given)	11.92
N#Cc1ccccc1N1CCCN(C(=O)CCc2cccs2)CC1	9.669
COCc1nc(C(=O)N2CCCC2c2cc(C)no2)cs1 (stereo not given)	-21.26 and -5.451 and -29.36
CC1(C)OC(=O)N(CC(=O)N2CCC(c3ccccc3F)C2)C1=O (stereo not given)	11.01 and 35.29
CCC(CC)C(=O)NS(=O)(=O)c1ccc(C#N)cc1C(F)(F)F	2.697
Cc1nc(Nc2nccs2)cc(C2CN(C(C)C)C2)n1	1.834
O=C(O)C(F)(F)F.O=C(O)C(F)(F)F.[H][C@@]12CN(Cc3ccoc3)CCO[C@]1([H])CN(Cc1ccco1)C2	16.52
COc1nc(C)ccc1CNC(=O)NC(C)(C)c1ncc(C)s1	-3.226
O=C(c1ccn(-c2ccccc2Cl)n1)N1CCSCC1	-3.548 and -21.22 and -2.639
[H][C@@]12CN(C(N)=O)C[C@]1([H])CN(C(=O)c1ccco1)C2	5.817
COc1ccc(OC)c(CN2CCC(c3cc(O)nc(C)n3)C2)c1 (stereo not given)	-3.849
Cc1cc(CN2CCN(C(=O)NCc3ccco3)CC2)no1	10.55
CN(C)C(=O)c1cccc(CCNS(C)(=O)=O)c1	-7.828
Cc1cc(N2CCN(Cc3ccc(C)o3)CC2)cc(C)n1	9.442
CC(c1ccco1)N(C)Cc1cccc(C(=O)Nc2nccn2C)c1 (stereo not given)	-0.641

Repeated from the top, 3 entries:

compound	Percent Effect
[H][C@@]12COC[C@]1(CNS(C)(=O)=O)CN(C(=O)C1CCSCC1)C2	-4.457
CC(C)Nc1ncnc2c1CCN(C(=O)N1CCOCC1)CC2	-3.924
CC(C)n1ccnc1CN1CCCN(C(=O)c2nccnc2N)CC1	-1.771